PubChem BioAssay AID1259331 – Drosophila RNAi Screening Center – 2017
Aim: 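Genes whose knock-down changes cell survival under toxic zinc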 (primary screen). System: Drosophila S2R+ cells. Reagents: long dsRNA against Drosophila genes. Time to read-out: 5 days (4 days knock-down, then 1 day zinc). Conditions: zinc chloride at 15 mM final level for 1 day. Read-out: 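Total cellular ATP measured by luciferase luminescence as a viability proxy, turned into Z scores from three plate copies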. Reading the numbers: mean Z score: higher = more ATP than other wells, better survival under zinc; ATP luminescence: higher = more ATP, more viable cells. Active means: 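Hit when the absolute Z score is greater than 1.5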. Calls: active = hit, ATP up or down; inactive = not a hit.
Shown is one part, drawn at random, of about 3,100 deposited reagents. In the full data, 126 (4.1%) are marked active. 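Calls are per reagent; zinc was so toxic that few knock-downs lowered ATP further, so most hits raise ATP.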 The raw values are shown without normalisation. Unmarked entries are inactive. Not stated in the record: the amount of reagent.

For Sur [DRSC03447], the entry reads mean Z score 0.0654; ATP luminescence, replicate 1 = 57134; ATP luminescence, replicate 2 = 57151.
Depletion of Sur [DRSC27276] came out at: mean Z score -0.137; ATP luminescence, replicate 1 = 46640; ATP luminescence, replicate 2 = 60375.
With knock-down of pes [DRSC03033] the results were mean Z score -0.517; ATP luminescence, replicate 1 = 45570; ATP luminescence, replicate 2 = 41188.
After knock-down of pes [DRSC25954] the results were mean Z score -0.379; ATP luminescence, replicate 1 = 52463; ATP luminescence, replicate 2 = 55539.
Against CG7744 [DRSC07036], the values are mean Z score 0.0046; ATP luminescence, replicate 1 = 32273; ATP luminescence, replicate 2 = 33130.
With knock-down of CG7744 [DRSC39431], the record shows mean Z score 0.537; ATP luminescence, replicate 1 = 57191; ATP luminescence, replicate 2 = 52007.
Ir10a [DRSC18891] gave mean Z score -0.882; ATP luminescence, replicate 1 = 56774; ATP luminescence, replicate 2 = 53952.
With knock-down of Ir10a [DRSC19478], the screen gave mean Z score -0.235; ATP luminescence, replicate 1 = 37777; ATP luminescence, replicate 2 = 39593.
After knock-down of Ir10a [DRSC19479], the record shows mean Z score -0.155; ATP luminescence, replicate 1 = 64285; ATP luminescence, replicate 2 = 62665.
With knock-down of cry [DRSC16928] the results were mean Z score -0.15; ATP luminescence, replicate 1 = 36182; ATP luminescence, replicate 2 = 52041.
For cry [DRSC39669], the entry reads mean Z score 0.495; ATP luminescence, replicate 1 = 67183; ATP luminescence, replicate 2 = 67989.

Laid out differently: results already given.
{"predicted target": "Sur", "DRSC id": "DRSC03447", "mean Z score": 0.0654, "ATP luminescence, replicate 1": 57134, "ATP luminescence, replicate 2": 57151}
{"predicted target": "Sur", "DRSC id": "DRSC27276", "mean Z score": -0.137, "ATP luminescence, replicate 1": 46640, "ATP luminescence, replicate 2": 60375}

The results go on.
C1GalTA [DRSC03246] gave mean Z score -0.4; ATP luminescence, replicate 1 = 51989; ATP luminescence, replicate 2 = 49057.
Depletion of Elo68beta [DRSC09860] came out at: mean Z score -0.372; ATP luminescence, replicate 1 = 71453; ATP luminescence, replicate 2 = 50755.
Against CG14223 [DRSC24816], the entry reads mean Z score -0.416; ATP luminescence, replicate 1 = 53430; ATP luminescence, replicate 2 = 51304.
After knock-down of CG14223 [DRSC39909], the screen gave mean Z score 0.065; ATP luminescence, replicate 1 = 58025; ATP luminescence, replicate 2 = 67629.
For Syt1 [DRSC00158], the values are mean Z score -0.344; ATP luminescence, replicate 1 = 38599; ATP luminescence, replicate 2 = 37193.
Silencing of Syt1 [DRSC00840] resulted in: mean Z score 0.0734; ATP luminescence, replicate 1 = 57820; ATP luminescence, replicate 2 = 56654.
Syt1 [DRSC22077] gave mean Z score -0.45; ATP luminescence, replicate 1 = 46468; ATP luminescence, replicate 2 = 38959.
Syt1 [DRSC27456] gave mean Z score -0.191; ATP luminescence, replicate 1 = 59912; ATP luminescence, replicate 2 = 50841.
